These are yes or no findings as the source states them, for the method shown. In cells and extracts the contact can be indirect. Some entries that bind do so weakly or less than the wild type.
Tests used:
[1] = target: GST-tagged clathrin terminal domain (1–363) (UniProt P49951); experiment: pull-down; purified GST-tagged protein (1 mg) prebound to glutathione agarose; clarified lysate of βarr1/2 DKO cells (20 mM HEPES pH 7.4, 150 mM NaCl, 2 mM DTT, 5 mM EDTA, 1% NP-40); all samples with 10 μM V2Rpp; 3 hr at 4°C; eluted with 10 mM glutathione; anti-GFP western blot; only the target purified
[2] = target: GST-tagged β-appendage of AP2 (701–937) (UniProt P63010); experiment: as above

By UniProt entry, the sequences of proteins in these tests, tags left out. Where a name states a change or a piece, a line headed by the entry shows the natural chain unless it says otherwise. Residues count along the entry.
UniProt P49951, residues 1-363: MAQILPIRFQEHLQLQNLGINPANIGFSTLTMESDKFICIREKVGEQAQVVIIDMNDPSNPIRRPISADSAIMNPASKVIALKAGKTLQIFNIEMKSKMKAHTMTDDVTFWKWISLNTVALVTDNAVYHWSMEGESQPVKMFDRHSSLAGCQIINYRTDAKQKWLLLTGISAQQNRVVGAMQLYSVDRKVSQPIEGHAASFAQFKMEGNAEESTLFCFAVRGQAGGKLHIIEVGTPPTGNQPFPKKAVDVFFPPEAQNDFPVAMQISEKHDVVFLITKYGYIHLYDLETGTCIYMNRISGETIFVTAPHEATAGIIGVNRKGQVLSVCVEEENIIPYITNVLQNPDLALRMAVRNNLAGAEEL
UniProt P63010, residues 701-937: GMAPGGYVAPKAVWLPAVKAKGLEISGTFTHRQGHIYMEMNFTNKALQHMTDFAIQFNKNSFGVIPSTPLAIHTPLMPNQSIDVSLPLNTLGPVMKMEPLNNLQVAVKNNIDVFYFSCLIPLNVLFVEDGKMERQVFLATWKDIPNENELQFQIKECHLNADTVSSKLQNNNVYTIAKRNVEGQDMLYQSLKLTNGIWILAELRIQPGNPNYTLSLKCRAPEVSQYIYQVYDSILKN
UniProt P29067: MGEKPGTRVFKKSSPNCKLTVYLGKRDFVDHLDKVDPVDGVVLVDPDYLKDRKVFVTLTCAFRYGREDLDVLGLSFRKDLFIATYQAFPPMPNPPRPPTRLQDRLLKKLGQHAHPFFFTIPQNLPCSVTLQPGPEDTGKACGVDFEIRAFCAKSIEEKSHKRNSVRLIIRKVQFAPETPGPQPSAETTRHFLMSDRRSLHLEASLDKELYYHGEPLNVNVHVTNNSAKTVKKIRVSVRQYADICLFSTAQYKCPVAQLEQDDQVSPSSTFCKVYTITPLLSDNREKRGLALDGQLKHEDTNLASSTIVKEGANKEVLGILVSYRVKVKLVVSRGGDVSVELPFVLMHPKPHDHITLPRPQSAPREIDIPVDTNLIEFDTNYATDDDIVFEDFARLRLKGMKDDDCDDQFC

Substance	binding [1]	binding [2]
β-arrestin-2-EGFP (from UniProt P29067 1-410)	binds	binds
β-arrestin-2-ΔCT-EGFP (from UniProt P29067 1-372) (domain or fragment)	no binding	no binding

Reference: publication PMC9681205
